Our source for the binding values is paper PMC3436762.

The target in the assay is membrane DR5 (endogenous, Jurkat and Daudi cells) (human (endogenous in Jurkat and Daudi)), O14763. In words: co-IP; Jurkat cells treated with LaDR5 for 1 hour at 37°C, lysed in 20 mM Tris-HCl, 150 mM NaCl, 10 % glycerol, 2 mM EDTA, 1 % NP-40, pH 8.0; protein A beads; blot for FADD and caspase-8. The settings on record: remark: other sources report otherwise.

These are yes or no findings as the source states them, for the method shown. In cells and extracts the contact can be indirect. Some results given as binding are weak or reduced against the parent protein; the word gives no strength.

B1: caspase-8, Q14790 1-479 (enzyme)
chain: MDFSRNLYDIGEQLDSEDLASLKFLSLDYIPQRKQEPIKDALMLFQRLQEKRMLEESNLSFLKELLFRINRLDLLITYLNTRKEEMERELQTPGRAQISAYRVMLYQISEEVSRSELRSFKFLLQEEISKCKLDDDMNLLDIFIEMEKRVILGEGKLDILKRVCAQINKSLLKIINDYEEFSKERSSSLEGSPDEFSNGEELCGVMTISDSPREQDSESQTLDKVYQMKSKPRGYCLIINNHNFAKAREKVPKLHSIRDRNGTHLDAGALTTTFEELHFEIKPHDDCTVEQIYEILKIYQLMDHSNMDCFICCILSHGDKGIIYGTDGQEAPIYELTSQFTGLKCPSLAGKPKVFFIQACQGDNYQKGIPVETDSEEQPYLEMDLSSPQTRYIPDEADFLLGMATVNNCVSYRNPAEGTWYIQSLCQSLRERCPRGDDILTILTEVNYEVSNKDDKKNMGKQMPQPTFTLRKKLVFPSD
With B1, the binding result is “binds”.
